The results in this text go back to the supplement of paper PMC4807443.

Where a name gives a salt, the structure may show the parent alone. The list shows a part of the results. The numbers are fractions of the control, whatever unit the source prints. Most entries show no effect beyond the scatter of the controls.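 A lentiviral reporter stably expressed in MIN6 mouse insulinoma beta cells uses Pdx1 and Ins1 promoters to drive separate nucleus-targeted fluorescent proteins; automated imaging with Hoechst nuclear stain counted cells. Possible hits were drugs shifting Ins1 promoter signal more than two median absolute deviations from DMSO controls, with Pdx1 activity roughly normal.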

For the experiment, the system named is MIN6. In words: % Pdx1+ Ins1-low (RFP-only, immature) cells relative to DMSO control (fold of DMSO control); higher = more immature Pdx1+/Ins1-low cells. The following applies: 8.5 µM; 48 h; glucose 5 mM.
With `O=C1O[C@H]([C@@H](O)CO)C(O)=C1O` [Ascorbic acid], the “% Pdx1+ Ins1-low” value amounted to 1.04.

On to `O=C(O)c1ccccc1Nc1cccc(C(F)(F)F)c1` [Flufenamic acid], for which the “% Pdx1+ Ins1-low” value was 1.24.

As to `OCCN1CCN(CC/C=C2/c3ccccc3Sc3ccc(Cl)cc32)CC1` [Zuclopenthixol hydrochloride], the “% Pdx1+ Ins1-low” value was found to be 0.913.

As for `C[N+]1(C)CCCC1C(=O)O` (centres undefined) [Stachydrine hydrochloride], the “% Pdx1+ Ins1-low” value came out at 0.945.

For `CCC(=O)O[C@]1(C(=O)SCF)[C@H](C)C[C@H]2[C@@H]3C[C@H](F)C4=CC(=O)C=C[C@]4(C)[C@@]3(F)[C@@H](O)C[C@@]21C` [Fluticasone propionate], the “% Pdx1+ Ins1-low” value amounted to 1.28.

For `CN(C)CCOC(=O)C(c1ccccc1)C1(O)CCCC1` (centres undefined) [Cyclopentolate hydrochloride], the “% Pdx1+ Ins1-low” value stood at 1.2.

Take `CC1=CC(=O)C2=C(C)CC[C@@H]3[C@H](OC(=O)[C@H]3C)[C@@H]12` [Leucomisine]: the “% Pdx1+ Ins1-low” value is 1.15.

On to `Nc1ccc(/N=N/c2ccccc2)c(N)n1` [Phenazopyridine hydrochloride], for which the “% Pdx1+ Ins1-low” value was determined as 0.947.

Turning to `CCC1(C)CC(=O)NC1=O` (centres undefined) [Ethosuximide], the “% Pdx1+ Ins1-low” value came to 1.26.

With `CC(NCCc1ccc(O)cc1)C(O)c1ccc(O)cc1` (centres undefined) [Ritodrine hydrochloride], the “% Pdx1+ Ins1-low” value is 1.16.

Regarding `C[N+](C)(CCOc1ccccc1)Cc1ccccc1.O=C([O-])c1cc2ccccc2cc1O` [Bephenium hydroxynaphthoate], the “% Pdx1+ Ins1-low” value is 0.635.

In the case of `CCCNC(C)(C)COC(=O)c1ccccc1` [Meprylcaine hydrochloride], the “% Pdx1+ Ins1-low” value was 0.64.

For the compound `CC(=O)Oc1ccc(C(c2ccc(OC(C)=O)cc2)c2ccccn2)cc1` [Bisacodyl], the “% Pdx1+ Ins1-low” value was found to be 1.34.

Consider `CCC(C)(C)C(=O)O[C@H]1C[C@@H](C)C=C2C=C[C@H](C)[C@H](CC[C@@H]3C[C@@H](O)CC(=O)O3)[C@H]21` [Simvastatin], for which the “% Pdx1+ Ins1-low” value was 0.624.

For the compound `N[C@@H](Cc1ccc(O)c(O)c1)C(=O)O` [Levodopa], the “% Pdx1+ Ins1-low” value is 1.08.

As for `CN1CCN2c3ccccc3Cc3ccccc3C2C1` (centres undefined) [Mianserine hydrochloride], the “% Pdx1+ Ins1-low” value was 0.917.

`O=C(O)CCC(=O)c1ccc(-c2ccccc2)cc1` [Fenbufen]: the “% Pdx1+ Ins1-low” value stood at 0.952.

For `C[C@H](CCC(=O)O)[C@H]1CC[C@H]2[C@@H]3C(=O)C[C@@H]4CC(=O)CC[C@]4(C)[C@H]3CC(=O)[C@]12C` [Dehydrocholic acid], the “% Pdx1+ Ins1-low” value is 0.634.

On to `CCOC(=O)C1=C(C)NC(C)=C(C(=O)OC)C1c1cccc(Cl)c1Cl` (centres undefined) [Felodipine], for which the “% Pdx1+ Ins1-low” value came to 0.789.

Consider `Nc1ncn(C2OC(CO)C(O)C2O)c(=O)n1` (centres undefined) [Azacytidine-5], for which the “% Pdx1+ Ins1-low” value was found to be 0.707.

On to `CC(C)(C)NC[C@H](O)COc1cccc2c1CCCC2=O` [(-) -Levobunolol hydrochloride], for which the “% Pdx1+ Ins1-low” value was 0.676.

As for `C[N+](C)(C)CCOC(N)=O` [Carbachol], the “% Pdx1+ Ins1-low” value was 1.24.

Consider `OC(CCN1CCCCC1)(c1ccccc1)c1ccccc1` [Pridinol methanesulfonate salt], for which the “% Pdx1+ Ins1-low” value stood at 1.29.

Regarding `CCN(CC)CCNC(=O)c1cc(Br)c(N)cc1OC` [Bromopride], the “% Pdx1+ Ins1-low” value was found to be 1.14.

Consider `CC(C)NNC(=O)c1ccncc1` [Iproniazide phosphate], for which the “% Pdx1+ Ins1-low” value came out at 0.789.

Take `CCOc1ccc(Cc2nccc3cc(OCC)c(OCC)cc23)cc1OCC` [Ethaverine hydrochloride]: the “% Pdx1+ Ins1-low” value came to 0.896.

On to `O=C(Nc1ccc([N+](=O)[O-])cc1Cl)c1cc(Cl)ccc1O` [Niclosamide], for which the “% Pdx1+ Ins1-low” value was 1.04.

As to `C#C[C@]1(O)CC[C@H]2[C@@H]3CCC4=Cc5oncc5C[C@]4(C)[C@H]3CC[C@@]21C` [Danazol], the “% Pdx1+ Ins1-low” value worked out at 1.13.

For the compound `CC12CC3CC(C)(C1)CC(N)(C3)C2` [Memantine Hydrochloride], the “% Pdx1+ Ins1-low” value was 0.401.

As for `CN1CCCN=C1/C=C/c1cccs1` [Pyrantel tartrate], the “% Pdx1+ Ins1-low” value was 0.786.

Regarding `CCC[C@@H]1C[C@@H](C(=O)N[C@@H]([C@H]2O[C@H](SC)[C@H](O)[C@@H](O)[C@H]2O)[C@@H](C)O)N(C)C1` [Lincomycin hydrochloride], the “% Pdx1+ Ins1-low” value was 1.37.

In the case of `CC1(C)O[C@@H]2C[C@H]3[C@@H]4C[C@H](F)C5=CC(=O)CC[C@]5(C)[C@H]4[C@@H](O)C[C@]3(C)[C@]2(C(=O)CO)O1` [Flurandrenolide], the “% Pdx1+ Ins1-low” value was 0.736.

Regarding `NNC(=O)c1ccncc1` [Isoniazid], the “% Pdx1+ Ins1-low” value was 0.715.

As for `CCN1CCCC1CNC(=O)c1cc(S(N)(=O)=O)ccc1OC` (centres undefined) [Sulpiride], the “% Pdx1+ Ins1-low” value was found to be 0.785.

Regarding `Cc1cccc(N(C)C(=S)Oc2ccc3ccccc3c2)c1` [Tolnaftate], the “% Pdx1+ Ins1-low” value was determined as 0.864.

For `O=c1[nH]c(=O)n([C@H]2C[C@H](O)[C@@H](CO)O2)cc1I` [Idoxuridine], the “% Pdx1+ Ins1-low” value stood at 0.875.

For the compound `CCCCc1oc2ccccc2c1C(=O)c1cc(I)c(OCCN(CC)CC)c(I)c1` [Amiodarone hydrochloride], the “% Pdx1+ Ins1-low” value was determined as 1.34.

As to `O=C(O)c1cccnc1` [Niacin], the “% Pdx1+ Ins1-low” value came out at 0.594.

For `CC1(C)O[C@@H]2C[C@H]3[C@@H]4C[C@H](F)C5=CC(=O)C=C[C@]5(C)[C@H]4[C@@H](O)C[C@]3(C)[C@]2(C(=O)CO)O1` [Flunisolide], the “% Pdx1+ Ins1-low” value was determined as 1.01.

For the compound `C[C@H](CS)C(=O)N1CCC[C@H]1C(=O)O` [Captopril], the “% Pdx1+ Ins1-low” value stood at 1.28.

On to `CC[C@H](c1ccc(O)cc1)[C@@H](CC)c1ccc(O)cc1` [Hexestrol], for which the “% Pdx1+ Ins1-low” value was 1.05.

For the compound `Cc1c(Nc2ncccc2C(=O)O)cccc1C(F)(F)F` [Flunixin meglumine], the “% Pdx1+ Ins1-low” value was determined as 0.625.

As to `CC1O[C@H](O[C@]2(O[C@H]3CC[C@@]4(C)C(=CC[C@H]5[C@@H]6C[C@H]7[C@H]([C@H](C)[C@H]8CC[C@H](C)CN87)[C@@]6(C)CC[C@@H]54)C3)C[C@@H](O[C@@H]3OC(CO)[C@@H](O)[C@@H](O)C3O)[C@@H](O)C(CO)O2)C(O)[C@@H](O)[C@H]1O` (stereo partly drawn) [Solanine alpha], the “% Pdx1+ Ins1-low” value is 1.3.

Consider `CC(C)(C)CC(C)(C)c1ccc(OCCOCC[N+](C)(C)Cc2ccccc2)cc1` [Benzethonium chloride], for which the “% Pdx1+ Ins1-low” value was determined as 0.634.

In the case of `CN1[C@@H]2CC[C@H]1C[C@@H](OC(=O)C(O)c1ccccc1)C2` (mixture of isomers) [Homatropine hydrobromide (R,S)], the “% Pdx1+ Ins1-low” value is 1.08.

For `C=C1C(=O)O[C@H]2[C@H]1CC/C(C)=C/CC[C@@]1(C)O[C@@H]21` [Parthenolide], the “% Pdx1+ Ins1-low” value stood at 0.877.

For the compound `CCCCOc1ccc(C(=O)CCN2CCCCC2)cc1` [Dyclonine hydrochloride], the “% Pdx1+ Ins1-low” value came to 0.917.

As for `C=C1CC[C@H](O)C/C1=C/C=C1\CCC[C@]2(C)[C@@H]([C@H](C)/C=C/[C@H](C)C(C)C)CC[C@@H]12` [Calciferol], the “% Pdx1+ Ins1-low” value came to 1.16.

On to `Nc1nc(N)c2nc(-c3ccccc3)c(N)nc2n1` [Triamterene], for which the “% Pdx1+ Ins1-low” value turned out to be 0.946.

Turning to `CC(C)(C)NC(=O)[C@H]1CC[C@H]2[C@@H]3CC[C@H]4NC(=O)C=C[C@]4(C)[C@H]3CC[C@]12C` [Finasteride], the “% Pdx1+ Ins1-low” value was found to be 0.655.

As for `C[C@H]1[C@H]2CC[C@H]3[C@@H]4CC=C5C[C@@H](N(C)C)CC[C@]5(C)[C@H]4CC[C@]23CN1C` [Conessine], the “% Pdx1+ Ins1-low” value was determined as 0.99.

Regarding `Nc1ncnc2c1ncn2[C@@H]1O[C@@H]2COP(=O)(O)O[C@H]2[C@H]1O` [(-)-Adenosine 3',5'-cyclic monophosphate], the “% Pdx1+ Ins1-low” value was determined as 0.823.

On to `COC(=O)[C@H]1[C@H]2C[C@H]3c4[nH]c5ccccc5c4CCN3C[C@H]2CC[C@@H]1O` [Rauwolscine hydrochloride], for which the “% Pdx1+ Ins1-low” value was determined as 0.925.

As for `CC(CN(C)C)CN1c2ccccc2CCc2ccccc21` (centres undefined) [Trimipramine maleate salt], the “% Pdx1+ Ins1-low” value is 0.849.

Turning to `OC(CCN1CCCC1)(c1ccccc1)C1CCCCC1` (centres undefined) [Procyclidine hydrochloride], the “% Pdx1+ Ins1-low” value worked out at 1.07.

For the compound `CC(C)NCC(O)COc1cccc2[nH]ccc12` (centres undefined) [Pindolol], the “% Pdx1+ Ins1-low” value worked out at 1.24.

Take `CCN(CC)C(=O)N1CCN(C)CC1` [Diethylcarbamazine citrate]: the “% Pdx1+ Ins1-low” value turned out to be 0.766.

Turning to `CCN(CCCc1ccccc1)CCCc1ccccc1` [Alverine citrate salt], the “% Pdx1+ Ins1-low” value amounted to 1.2.

For the compound `Cc1c(C)c2c(c(C)c1O)CC[C@@](C)(CCC[C@H](C)CCC[C@H](C)CCCC(C)C)O2` (racemic) [Tocopherol (R,S)], the “% Pdx1+ Ins1-low” value was 1.78.

For the compound `Clc1ccccc1C(c1ccccc1)(c1ccccc1)n1ccnc1` [Clotrimazole], the “% Pdx1+ Ins1-low” value stood at 0.555.

For `Clc1ccc(COC(Cn2ccnc2)c2ccc(Cl)cc2Cl)cc1` (centres undefined) [Econazole nitrate], the “% Pdx1+ Ins1-low” value was 0.709.

Take `C[C@H](CCC(=O)NCC(=O)O)[C@H]1CC[C@H]2[C@@H]3[C@H](O)C[C@@H]4C[C@H](O)CC[C@]4(C)[C@H]3C[C@H](O)[C@]12C` [Glycocholic acid]: the “% Pdx1+ Ins1-low” value came out at 0.909.

Consider `CCCC(C(=O)OCCN(CC)CC)(c1ccccc1)c1ccccc1` [Proadifen hydrochloride], for which the “% Pdx1+ Ins1-low” value turned out to be 0.775.

Regarding `C=CC[N@@+]12CC[C@@]34c5ccccc5N5/C=C6/[C@H]7C[C@H]8[C@@]9(CC[N@@+]8(CC=C)C/C7=C/CO)c7ccccc7N(/C=C(/[C@@H](C[C@@H]31)/C(=C\CO)C2)[C@H]54)[C@@H]69` [Alcuronium chloride], the “% Pdx1+ Ins1-low” value is 1.09.

With `NC[C@H]1CC[C@H](C(=O)O)CC1` [Tranexamic acid], the “% Pdx1+ Ins1-low” value was determined as 0.694.

With `C=CCc1ccccc1OCC(O)CNC(C)C` (centres undefined) [Alprenolol hydrochloride], the “% Pdx1+ Ins1-low” value was determined as 1.11.

For the compound `CCCCOc1ccc(CC(=O)NO)cc1` [Bufexamac], the “% Pdx1+ Ins1-low” value came to 0.632.

In the case of `CC(=O)OC(C)C[N+](C)(C)C` (centres undefined) [Methacholine chloride], the “% Pdx1+ Ins1-low” value turned out to be 0.358.

Consider `O=C(O)c1cc(=O)c2c(OCC(O)COc3cccc4oc(C(=O)O)cc(=O)c34)cccc2o1` [Cromolyn disodium salt], for which the “% Pdx1+ Ins1-low” value was 0.649.

As for `CN(C)CCC(c1ccccc1)c1ccccn1` (centres undefined) [Pheniramine maleate], the “% Pdx1+ Ins1-low” value worked out at 1.35.

For `CCSc1ccc2c(c1)N(CCCN1CCN(C)CC1)c1ccccc1S2` [Thiethylperazine malate], the “% Pdx1+ Ins1-low” value turned out to be 1.02.

Take `Nc1ccc(S(N)(=O)=O)cc1` [Sulfanilamide]: the “% Pdx1+ Ins1-low” value is 1.2.

Regarding `CC(CCc1ccc(O)cc1)NCCc1ccc(O)c(O)c1` (centres undefined) [Dobutamine hydrochloride], the “% Pdx1+ Ins1-low” value amounted to 0.809.

As for `CC[C@]12CCCN3CCc4c(n(c5ccccc45)[C@@](O)(C(=O)OC)C1)[C@@H]32` [Vincamine], the “% Pdx1+ Ins1-low” value amounted to 0.52.
